The other results are listed elsewhere or left out.

Amino acid sequences for entries named in this document (tags omitted). A change or cut given only in a name is not applied to a line headed by its entry.
UniProt Q9UBP0: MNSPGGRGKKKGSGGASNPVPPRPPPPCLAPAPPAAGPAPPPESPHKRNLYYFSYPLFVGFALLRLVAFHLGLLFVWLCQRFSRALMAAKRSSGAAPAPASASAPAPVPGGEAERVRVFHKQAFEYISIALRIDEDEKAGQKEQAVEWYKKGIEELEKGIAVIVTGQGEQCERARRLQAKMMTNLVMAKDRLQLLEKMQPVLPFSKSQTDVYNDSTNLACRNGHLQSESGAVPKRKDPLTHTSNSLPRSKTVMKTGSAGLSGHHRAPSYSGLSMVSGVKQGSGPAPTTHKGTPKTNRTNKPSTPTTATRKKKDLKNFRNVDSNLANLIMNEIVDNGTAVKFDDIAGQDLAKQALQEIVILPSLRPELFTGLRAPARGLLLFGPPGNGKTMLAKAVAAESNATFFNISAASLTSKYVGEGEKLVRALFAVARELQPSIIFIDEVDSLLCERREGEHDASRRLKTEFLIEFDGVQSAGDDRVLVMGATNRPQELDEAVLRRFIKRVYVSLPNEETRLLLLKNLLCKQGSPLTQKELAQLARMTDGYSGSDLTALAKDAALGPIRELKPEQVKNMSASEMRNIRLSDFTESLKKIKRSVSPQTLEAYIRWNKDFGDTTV
UniProt Q9NZD8: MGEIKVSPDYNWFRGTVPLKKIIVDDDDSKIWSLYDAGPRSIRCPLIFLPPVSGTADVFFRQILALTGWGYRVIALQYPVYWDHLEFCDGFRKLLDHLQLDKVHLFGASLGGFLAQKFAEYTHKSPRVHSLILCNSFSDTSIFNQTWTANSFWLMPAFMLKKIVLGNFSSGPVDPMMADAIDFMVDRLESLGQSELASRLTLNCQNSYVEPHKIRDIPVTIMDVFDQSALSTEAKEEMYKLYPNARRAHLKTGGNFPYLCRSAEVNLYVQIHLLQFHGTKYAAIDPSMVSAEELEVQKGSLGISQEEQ
UniProt Q69YQ0: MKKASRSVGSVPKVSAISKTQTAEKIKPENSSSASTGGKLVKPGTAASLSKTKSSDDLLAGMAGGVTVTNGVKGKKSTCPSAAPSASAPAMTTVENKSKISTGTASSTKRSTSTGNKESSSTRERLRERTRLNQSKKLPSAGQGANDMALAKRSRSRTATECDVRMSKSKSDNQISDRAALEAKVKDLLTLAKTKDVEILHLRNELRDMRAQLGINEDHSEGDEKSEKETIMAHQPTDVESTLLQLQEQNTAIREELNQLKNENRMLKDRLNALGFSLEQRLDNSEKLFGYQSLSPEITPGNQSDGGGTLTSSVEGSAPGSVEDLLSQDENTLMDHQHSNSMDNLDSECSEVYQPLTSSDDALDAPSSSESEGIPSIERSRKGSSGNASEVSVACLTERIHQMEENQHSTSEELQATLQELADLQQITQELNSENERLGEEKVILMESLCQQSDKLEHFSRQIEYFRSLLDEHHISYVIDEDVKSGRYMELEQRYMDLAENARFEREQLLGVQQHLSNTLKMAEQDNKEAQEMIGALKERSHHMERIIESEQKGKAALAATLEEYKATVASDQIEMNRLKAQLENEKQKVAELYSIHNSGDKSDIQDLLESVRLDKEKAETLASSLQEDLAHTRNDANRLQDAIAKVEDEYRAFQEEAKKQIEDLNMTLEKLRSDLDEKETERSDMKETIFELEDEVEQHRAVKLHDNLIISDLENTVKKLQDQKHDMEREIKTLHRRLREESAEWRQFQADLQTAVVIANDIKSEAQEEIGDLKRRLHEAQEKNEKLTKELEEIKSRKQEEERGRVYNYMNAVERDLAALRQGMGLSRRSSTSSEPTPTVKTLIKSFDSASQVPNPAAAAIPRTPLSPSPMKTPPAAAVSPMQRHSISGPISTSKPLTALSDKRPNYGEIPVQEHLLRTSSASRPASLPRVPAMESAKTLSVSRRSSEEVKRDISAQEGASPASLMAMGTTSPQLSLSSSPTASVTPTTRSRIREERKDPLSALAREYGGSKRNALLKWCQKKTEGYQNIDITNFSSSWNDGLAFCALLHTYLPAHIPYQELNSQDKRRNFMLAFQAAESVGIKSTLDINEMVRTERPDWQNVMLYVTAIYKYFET
UniProt P43307: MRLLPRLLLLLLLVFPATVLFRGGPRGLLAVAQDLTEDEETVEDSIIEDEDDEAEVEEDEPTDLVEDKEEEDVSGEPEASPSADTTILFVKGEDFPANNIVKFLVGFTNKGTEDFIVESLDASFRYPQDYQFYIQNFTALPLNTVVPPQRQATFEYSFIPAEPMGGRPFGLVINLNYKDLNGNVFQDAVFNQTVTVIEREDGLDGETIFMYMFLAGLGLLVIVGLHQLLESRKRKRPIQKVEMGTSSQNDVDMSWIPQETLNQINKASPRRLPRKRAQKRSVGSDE
UniProt Q12772: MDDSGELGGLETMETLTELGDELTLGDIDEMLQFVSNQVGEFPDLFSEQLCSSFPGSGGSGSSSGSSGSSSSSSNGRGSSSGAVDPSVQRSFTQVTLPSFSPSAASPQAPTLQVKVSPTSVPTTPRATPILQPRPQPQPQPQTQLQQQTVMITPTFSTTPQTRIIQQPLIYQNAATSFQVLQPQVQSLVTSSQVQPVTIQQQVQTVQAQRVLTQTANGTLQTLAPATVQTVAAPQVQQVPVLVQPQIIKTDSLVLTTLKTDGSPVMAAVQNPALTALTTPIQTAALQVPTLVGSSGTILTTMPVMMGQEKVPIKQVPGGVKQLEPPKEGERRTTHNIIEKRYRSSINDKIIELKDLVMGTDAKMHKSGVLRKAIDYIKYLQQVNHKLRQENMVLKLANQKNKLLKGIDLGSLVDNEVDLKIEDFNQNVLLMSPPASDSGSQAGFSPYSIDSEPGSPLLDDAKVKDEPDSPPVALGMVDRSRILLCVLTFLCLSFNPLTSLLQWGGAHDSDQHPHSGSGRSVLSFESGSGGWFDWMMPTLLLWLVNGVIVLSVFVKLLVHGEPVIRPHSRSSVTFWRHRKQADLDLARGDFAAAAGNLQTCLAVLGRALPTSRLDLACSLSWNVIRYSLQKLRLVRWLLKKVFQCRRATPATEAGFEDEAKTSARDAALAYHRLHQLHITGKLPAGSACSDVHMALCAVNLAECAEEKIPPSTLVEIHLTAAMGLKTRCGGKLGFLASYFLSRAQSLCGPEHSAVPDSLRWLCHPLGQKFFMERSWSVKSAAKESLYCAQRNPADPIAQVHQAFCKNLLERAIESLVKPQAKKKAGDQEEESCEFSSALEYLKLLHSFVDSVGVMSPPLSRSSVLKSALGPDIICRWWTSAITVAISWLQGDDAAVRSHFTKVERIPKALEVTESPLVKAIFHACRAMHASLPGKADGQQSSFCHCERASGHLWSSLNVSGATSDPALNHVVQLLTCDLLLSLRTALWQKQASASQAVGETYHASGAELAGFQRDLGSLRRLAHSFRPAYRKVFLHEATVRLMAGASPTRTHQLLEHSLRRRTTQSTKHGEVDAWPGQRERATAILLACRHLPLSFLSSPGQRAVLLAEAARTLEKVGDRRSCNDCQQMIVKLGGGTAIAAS
UniProt Q9NP77: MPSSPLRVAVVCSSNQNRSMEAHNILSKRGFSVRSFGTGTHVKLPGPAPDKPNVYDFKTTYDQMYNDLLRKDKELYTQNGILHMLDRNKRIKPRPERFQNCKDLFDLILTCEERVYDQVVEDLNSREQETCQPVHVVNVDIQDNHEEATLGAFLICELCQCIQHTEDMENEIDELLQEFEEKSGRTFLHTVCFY
UniProt O95630, whole entry, looked up: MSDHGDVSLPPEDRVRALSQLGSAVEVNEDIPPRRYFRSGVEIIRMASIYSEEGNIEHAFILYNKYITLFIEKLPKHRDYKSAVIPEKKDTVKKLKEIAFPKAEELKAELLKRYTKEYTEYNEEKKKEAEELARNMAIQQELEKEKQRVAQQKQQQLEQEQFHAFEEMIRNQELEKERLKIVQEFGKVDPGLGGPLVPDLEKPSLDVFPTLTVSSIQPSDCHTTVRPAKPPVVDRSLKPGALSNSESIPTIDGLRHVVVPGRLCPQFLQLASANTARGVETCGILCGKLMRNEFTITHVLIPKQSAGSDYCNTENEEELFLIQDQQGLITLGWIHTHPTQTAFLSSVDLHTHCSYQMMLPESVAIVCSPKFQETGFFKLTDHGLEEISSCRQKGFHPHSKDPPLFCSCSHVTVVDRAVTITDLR
UniProt Q13247: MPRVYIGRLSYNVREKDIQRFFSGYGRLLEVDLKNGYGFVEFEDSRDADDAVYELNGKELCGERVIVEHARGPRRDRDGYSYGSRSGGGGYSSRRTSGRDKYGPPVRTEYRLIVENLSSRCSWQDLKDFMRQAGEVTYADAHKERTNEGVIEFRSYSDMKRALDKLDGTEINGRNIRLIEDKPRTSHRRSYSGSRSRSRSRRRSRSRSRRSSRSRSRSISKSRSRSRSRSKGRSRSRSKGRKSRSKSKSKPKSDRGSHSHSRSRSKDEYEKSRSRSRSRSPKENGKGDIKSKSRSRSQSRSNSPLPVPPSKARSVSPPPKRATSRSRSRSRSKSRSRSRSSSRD
UniProt Q9BVQ7: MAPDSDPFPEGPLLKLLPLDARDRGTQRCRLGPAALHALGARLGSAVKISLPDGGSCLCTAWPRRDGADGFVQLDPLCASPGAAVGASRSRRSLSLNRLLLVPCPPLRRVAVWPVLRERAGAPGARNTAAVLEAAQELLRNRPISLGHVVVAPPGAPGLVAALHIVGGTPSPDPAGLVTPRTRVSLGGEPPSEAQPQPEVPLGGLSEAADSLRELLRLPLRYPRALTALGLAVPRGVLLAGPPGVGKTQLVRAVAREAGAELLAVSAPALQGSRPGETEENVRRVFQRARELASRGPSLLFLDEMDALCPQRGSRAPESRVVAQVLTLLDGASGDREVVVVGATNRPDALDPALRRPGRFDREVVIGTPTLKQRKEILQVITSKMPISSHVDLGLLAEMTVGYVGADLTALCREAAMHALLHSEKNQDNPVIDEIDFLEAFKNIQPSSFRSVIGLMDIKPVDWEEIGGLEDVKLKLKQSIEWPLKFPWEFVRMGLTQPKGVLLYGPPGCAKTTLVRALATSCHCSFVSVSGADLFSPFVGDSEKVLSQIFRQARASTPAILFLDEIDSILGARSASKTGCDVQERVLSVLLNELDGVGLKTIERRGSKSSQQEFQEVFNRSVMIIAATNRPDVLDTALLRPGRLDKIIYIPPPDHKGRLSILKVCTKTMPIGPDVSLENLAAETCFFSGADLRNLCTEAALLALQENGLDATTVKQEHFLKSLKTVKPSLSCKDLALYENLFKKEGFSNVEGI
UniProt Q08AE8, whole entry, looked up: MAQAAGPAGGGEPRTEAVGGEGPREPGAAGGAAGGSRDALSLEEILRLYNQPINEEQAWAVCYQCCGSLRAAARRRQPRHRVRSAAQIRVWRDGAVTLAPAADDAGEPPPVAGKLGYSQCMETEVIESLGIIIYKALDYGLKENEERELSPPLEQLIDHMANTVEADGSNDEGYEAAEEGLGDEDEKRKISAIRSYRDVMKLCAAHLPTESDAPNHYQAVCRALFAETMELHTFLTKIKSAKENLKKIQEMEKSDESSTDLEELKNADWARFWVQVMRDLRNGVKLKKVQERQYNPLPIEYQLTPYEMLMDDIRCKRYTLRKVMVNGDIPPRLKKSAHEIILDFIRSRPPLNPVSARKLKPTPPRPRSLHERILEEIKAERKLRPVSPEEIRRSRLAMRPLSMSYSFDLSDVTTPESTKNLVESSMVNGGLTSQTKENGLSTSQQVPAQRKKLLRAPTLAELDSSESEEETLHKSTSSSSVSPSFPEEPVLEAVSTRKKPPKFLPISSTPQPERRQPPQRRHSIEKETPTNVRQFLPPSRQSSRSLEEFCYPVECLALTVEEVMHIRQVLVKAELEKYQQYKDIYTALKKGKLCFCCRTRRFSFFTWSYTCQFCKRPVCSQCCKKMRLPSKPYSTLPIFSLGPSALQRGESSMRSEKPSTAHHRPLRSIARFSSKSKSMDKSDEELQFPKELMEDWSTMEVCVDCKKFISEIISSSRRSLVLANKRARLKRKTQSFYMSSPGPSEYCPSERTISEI
UniProt Q86XZ4: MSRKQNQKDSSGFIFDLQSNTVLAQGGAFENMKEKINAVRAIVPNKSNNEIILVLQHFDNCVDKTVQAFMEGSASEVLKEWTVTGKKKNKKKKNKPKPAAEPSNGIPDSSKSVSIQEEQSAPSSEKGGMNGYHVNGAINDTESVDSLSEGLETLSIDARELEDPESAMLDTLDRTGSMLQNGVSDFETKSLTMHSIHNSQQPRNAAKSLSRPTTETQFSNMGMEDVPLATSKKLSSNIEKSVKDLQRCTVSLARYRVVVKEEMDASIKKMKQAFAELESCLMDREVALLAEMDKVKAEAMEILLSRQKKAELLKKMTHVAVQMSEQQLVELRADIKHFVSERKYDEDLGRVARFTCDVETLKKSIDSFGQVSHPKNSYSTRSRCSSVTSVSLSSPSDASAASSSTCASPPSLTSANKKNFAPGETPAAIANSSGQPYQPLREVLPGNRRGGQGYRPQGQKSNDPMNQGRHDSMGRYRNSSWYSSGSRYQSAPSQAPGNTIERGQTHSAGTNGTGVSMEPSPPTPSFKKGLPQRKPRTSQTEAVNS

Compound in the first assay: Cc1ccc(NC(=O)c2ccc(CN3CC[C@H](N(C)C)C3)c(C(F)(F)F)c2)cc1Nc1nccc(-c2cncnc2)n1 [bafetinib]
The assay is described as follows: log2 fold change, soluble protein after heating vs DMSO (PISA); higher = thermal stabilisation; K562 lysate, 10 uM; active = over 0.2 and 3.5 SD of the protein, either way, in both replicates (recomputed). The method, boiled down: (§1)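 Log-two fold change in thermal stability relative to solvent controls is reported from duplicates. For each sample, crude K562 extract from dounce-homogenised pellets in PBS pH 7.4 with 1 mM MgCl2, at 1 mg/mL protein, was treated with 10 μM compound for 30 min. Aliquots heated for 3 min across 48°C-58°C were pooled, brought to 0.5% NP-40 at 4°C and cleared at 21,000xg for 90 min. The supernatant was quantified by TMTpro 16plex LC-MS/MS with channel sums equalised.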
Consider SRP72 (UniProt O76094), for which the log2 fold change is inactive: -0.046. On the same count and under the same terms, to SPAST (UniProt Q9UBP0) belongs inactive: -0.108.

Take SPG21 (UniProt Q9NZD8): the log2 fold change was inactive: 0.009. As for SRRM2 (UniProt Q9UQ35), the log2 fold change was inactive: -0.02.

On to SRR (UniProt Q9GZT4), for which the log2 fold change is inactive: -0.029. As for SPECC1L (UniProt Q69YQ0), the log2 fold change is inactive: -0.015.

SSR1 (UniProt P43307): the log2 fold change was inactive: -0.014. SRF (UniProt P11831): the log2 fold change was inactive: 0.039.

Compound in a further assay: Cc1cccc(CC(=O)N2CCc3c2ccc(-c2cn(C)c4ncnc(N)c24)c3F)n1
Described as above. The method, boiled down: as §1
Regarding SREBF2 (UniProt Q12772), the log2 fold change is inactive: 0.179.

Turning to SPDL1 (UniProt Q96EA4), the log2 fold change was inactive: 0.042. With SSU72 (UniProt Q9NP77), the log2 fold change was inactive: 0.166.

For the target SRPK1 (UniProt Q96SB4), the log2 fold change was inactive: -0.054. STAMBP (UniProt O95630): the log2 fold change is inactive: -0.026. The same measure, in the same setting: to SPTLC2 (UniProt O15270) belongs inactive: 0.061; to SRSF4 (UniProt Q08170), inactive: -0.103. Regarding SRSF1 (UniProt Q07955), the log2 fold change was inactive: -0.061. As for SRSF6 (UniProt Q13247), the log2 fold change is inactive: -0.119.

In the case of SPTBN2 (UniProt O15020), the log2 fold change was inactive: 0.01. Take SPATA5L1 (UniProt Q9BVQ7): the log2 fold change was inactive: 0.049. For STAU1 (UniProt O95793), the log2 fold change was inactive: -0.062. SPIRE1 (UniProt Q08AE8): the log2 fold change is inactive: 0.134. For the target SPR (UniProt P35270), the log2 fold change is inactive: -0.117.

With SPATS2 (UniProt Q86XZ4), the log2 fold change was inactive: -0.164. As to SPATA5 (UniProt Q8NB90), the log2 fold change was inactive: 0.034.

Source of the values: the supplement of paper PMC10849652.
